According to PubChem BioAssay AID504467 (National Center for Advancing Translational Sciences (NCATS), 2011):
The whole screen tested about 330,000 compounds, of which about 7,700 (2.3%) were called active. The inconclusive results got no clear call from the source; some entries with a clear call stand among them for comparison. The call rests on the fitted dose curve; in most records, active means well fitted inhibition curve with a large enough effect; inconclusive means small, poorly fitted or top-dose-only effect, or effect the other way; inactive means flat fitted curve, though single readings scatter. Potencies of inconclusive entries are doubtful fits and often do not repeat.

Assay: qHTS screen for small molecules that inhibit ELG1-dependent DNA repair in human embryonic kidney (HEK293T) cells expressing luciferase-tagged ELG1; further: nearly all actives have a fitted effect of over 55% in size
Details: HEK293T ELG1-luciferase reporter, luminescence, 16 h, DNA damage induced by 5-fluorouridine; series mostly up to 46.1 µM
Outline: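 Quantitative HTS, concentration-response format. 2,000 cells/well co-treated with 5-fluorouridine and compound, 16 hr in 5% CO2 at 37 °C; ONE-Glo luminescence read after 30 min.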
Potency means the concentration at half of the fitted maximal effect.

Row | Compound | Potency
1 | O=C(Nc1nnc(-c2cccs2)s1)c1cccc(F)c1 | inconclusive: 7.3 µM [activator, partial curve]
2 | Cn1cccc1C1NC(=O)c2c(sc3c2CCC(C(C)(C)C)C3)N1 (configuration not stated) | inactive
3 | CC(C)[C@H](NC(=O)c1ccc(C(C)(C)C)cc1)C(=O)Nc1nnc(C2CC2)s1 | inactive
4 | COc1ccc(-c2nsc3c(N4CCCCC4C)ncnc23)cc1 (configuration not stated) | inconclusive: 0.73 µM [activator, partial curve]
5 | C=CCNC(=O)C1CCC(C(=O)NCC=C)CC1 (configuration not stated) | inconclusive: 20.6 µM [activator, partial curve]
6 | CCOC(=O)c1ccc(-n2ccnc2)c(NC(=O)c2ccc(C(C)(C)C)cc2)c1 | inconclusive: 25.9 µM [inhibitor, single point]
7 | Cc1ccc(NC(=O)CSc2nnnn2C)cc1S(=O)(=O)N(C)C | inconclusive: 18.4 µM [activator, single point]
8 | COC(=O)[C@]1(C)N[C@H](c2ccc(-c3ccc(Cl)c(Cl)c3)c(OC)c2)[C@@H]2C(=O)N(C)C(=O)[C@@H]21 | inconclusive: 18.3 µM [inhibitor, partial curve]
9 | CC(=O)c1ccc(S(=O)(=O)Nc2ccc3c(c2)OCO3)cc1 | inactive
10 | CN(C)S(=O)(=O)c1cccc(NC(=O)CSc2cccc3cccnc23)c1 | inactive
11 | COc1ccc(Cc2nc3ccc(C(=O)N(C)CCn4ccnc4)cc3o2)cc1OC | inconclusive: 20.6 µM [activator, partial curve]
12 | CCOc1ccccc1NC(=O)CCS(=O)(=O)c1ccc(Br)cc1 | inactive
13 | CCN1CCN(C(=O)CSc2cc(=O)n(CC)c3ccccc23)CC1 | inconclusive: 18.4 µM [activator, partial curve]
14 | COc1ccc2[nH]c(=O)c(CNc3ccccc3C)cc2c1 | inconclusive: 25.9 µM [activator, single point]
15 | CCOC(=O)c1cnc(SCCc2ccccc2)nc1N | inconclusive: 11.2 µM [activator, partial curve, poor fit]
16 | COc1ccccc1C(=O)Nc1nnc(SCC(=O)NC2CCCC2)s1 | inconclusive: 2.31 µM [activator, full curve]
17 | CCCCN(CC)c1nc(N)c2c(N)nc(OCC)cc2c1C#N | inconclusive: 29.1 µM [inhibitor, single point]
18 | Nc1nonc1-c1noc(COc2ccccc2Cl)n1 | inconclusive: 8.2 µM [activator, partial curve]
19 | COc1ccc(CNc2nc(NCc3ccc(OC)c(OC)c3)n(C(=O)c3cccs3)n2)cc1OC | inconclusive: 4.61 µM [inhibitor, partial curve]
20 | CCOC(=O)c1c(C)[nH]c(C(=O)NCc2ccccc2OC)c1C | inconclusive: 8.2 µM [activator, partial curve]
21 | COc1cccc(C(=O)Nc2nnc(C3CCCO3)s2)c1 (configuration not stated) | inconclusive: 16.4 µM [activator, partial curve]
22 | NC(=O)C1CCN(Cc2ccc(OCc3ccccc3)cc2)CC1 | inconclusive: 20.6 µM [activator, partial curve]
23 | O=C(Nc1ccc(N2CCOCC2)cc1)c1ccc([N+](=O)[O-])o1 | inconclusive: 16.4 µM [activator, partial curve]
24 | O=C(CN1C(=O)NC(Cc2c[nH]c3ccccc23)C1=O)NCCc1ccccc1 (configuration not stated) | inactive

Compounds 18 to 19, quoted:
Row | Compound | Potency
18 | Nc1nonc1-c1noc(COc2ccccc2Cl)n1 | inconclusive: 8.2 µM [activator, partial curve]
19 | COc1ccc(CNc2nc(NCc3ccc(OC)c(OC)c3)n(C(=O)c3cccs3)n2)cc1OC | inconclusive: 4.61 µM [inhibitor, partial curve]

(more compounds)

Row | Compound | Potency
25 | CC(=O)N1CCN(c2ccc(Nc3nc(C)nc4c3oc3ccccc34)cc2)CC1 | inconclusive: 29.1 µM [inhibitor, single point]
26 | CC(C)=CCN1CCN(Cc2ccc(C)s2)CC1CCO (configuration not stated) | inactive
27 | C=CCn1c(-c2ccccc2)nc2nc3ccccc3nc21 | inactive
28 | CCCCc1nc2c(=O)[nH]c3ccccc3c2o1 | inconclusive: 6.51 µM [activator, single point]
29 | CC(=O)Nc1ccc(NC(=O)CC2SC(=O)N(CC(=O)c3ccccc3)C2=O)cc1 (configuration not stated) | inactive
30 | Cc1nc(N)nc(SCc2ccc([N+](=O)[O-])cc2)c1N | inconclusive: 9.2 µM [inhibitor, partial curve, poor fit]
31 | Nc1nc(NC(=O)c2ccccc2Cl)nn1-c1ccccc1 | inconclusive: 11.6 µM [activator, partial curve, poor fit]
32 | C/C(=N\NC(=O)Cc1ccc(Cl)cc1)c1ccccn1 | inconclusive: 29.1 µM [activator, single point]
33 | CCN1CCN(C(=O)CNC(=O)c2nn(-c3ccc(OC)cc3)c(=O)c3ccccc23)CC1 | inconclusive: 20.6 µM [activator, single point]
34 | CCN(CC)CCCN=Cc1c(O)n(-c2ccccc2C)c(=O)c2ccccc12 | inactive
35 | CCCCC(=O)N/C(N)=N/c1nc2ccccc2o1 | inconclusive: 2.91 µM [activator, partial curve]
36 | O=C(Nc1nc2ccccc2n1CCOc1ccccc1)c1ccco1 | inconclusive: 16.4 µM [inhibitor, partial curve, poor fit]
37 | COc1ccc(Cc2nnc(SCC(=O)NC3(C#N)CCCCC3)n2N)cc1 | inactive
38 | CC(=O)Nc1nc(-c2cccs2)cs1 | inconclusive: 29.1 µM [activator, single point]
39 | COc1ccc(-c2csc(NC(=O)C3CC(=O)N(c4ccc5c(c4)OCCO5)C3)n2)cc1 (configuration not stated) | active: 23.1 µM
40 | CCOC(=O)c1cn2nc(SCc3ccccc3)nc2nc1C | inconclusive: 8.2 µM [activator, partial curve]
41 | Cc1ccccc1C(=O)Nc1ccc(N2CCCCCC2)cc1 | inconclusive: 5.8 µM [activator, partial curve]
42 | CCc1ccc(CN2CCN(C(=O)c3ccco3)CC2)cc1 | inactive
43 | Cc1cc(OCc2cc(C(=O)N(C)C(C)c3ccccn3)no2)cc(C)c1Cl (configuration not stated) | inconclusive: 14.6 µM [activator, partial curve]
44 | O=C(COC(=O)c1cccc(OC(F)F)c1)NC(=O)NC1CCCCC1 | inconclusive: 18.3 µM [activator, single point]
45 | CCOc1ccc(C(=O)Nc2cc(Cl)ccc2-n2cncn2)cc1OC | inconclusive: 2.91 µM [inhibitor, partial curve, poor fit]
46 | CC(Sc1nc2c(c(=O)[nH]1)CCCC2)C(=O)Nc1ccccc1C#N (configuration not stated) | inconclusive: 29.1 µM [activator, single point]
47 | O=C(Nc1ccc(NC(=O)C2CC2)cn1)c1ccccc1Cl | inconclusive: 14.6 µM [activator, partial curve]
48 | COc1ccc(OC)c(C=Nc2ccccc2-c2nc3ccccc3[nH]2)c1 | inconclusive: 20.6 µM [activator, partial curve]

Row | Compound | Potency
49 | CCC(=O)Nc1ccc(N2CCCCC2)c(C(=O)Nc2ccc(OC)cc2)c1 | inactive
50 | C=CCNC(=S)N/N=C(\C)c1ccc(OC)cc1 | inconclusive: 29.1 µM [inhibitor, single point]
51 | CCOc1ccc(N(CC(=O)NC(C)(C)C)S(=O)(=O)c2c(C)noc2C)cc1 | inactive
52 | Cc1cc(C)cc(NC(=O)CSc2nnc(-c3ccccc3Br)o2)c1 | inconclusive: 20.6 µM [activator, single point]
53 | CC(=O)N1c2ccccc2Oc2cc3ccccc3cc21 | inconclusive: 20.6 µM [activator, single point]
54 | Cn1c(=O)c2c(nc(NCc3ccco3)n2CCc2ccccc2)n(C)c1=O | inconclusive: 25.9 µM [inhibitor, partial curve, poor fit]
55 | CC(=O)NS(=O)(=O)c1ccc(NC(=O)c2cc(-c3cccs3)nc3ccccc23)cc1 | inactive
56 | CCOC(=O)CSc1nc2cc(C)cc(C)c2cc1C#N | inactive
57 | O=C(NCCc1ccccc1)C1CCC(=O)N(Cc2cccc(C(F)(F)F)c2)C1 (configuration not stated) | inactive
58 | O=C(O)C1CCC(N2C(=O)c3c(Cl)c(Cl)c(Cl)c(Cl)c3C2=O)CC1 (configuration not stated) | inactive
59 | CCOc1ccc2nc(NC3=NC(c4ccc(OC)cc4)CC(=O)N3)nc(C)c2c1 (configuration not stated) | inconclusive: 14.6 µM [activator, single point]
60 | COc1ccc(CN(C)CC(=O)Nc2ccccc2-c2ccccc2)c(OC)c1 | inconclusive: 29.1 µM [inhibitor, single point]
61 | Cc1nnc(NC(=O)c2ccc(S(=O)(=O)N3CCCCCC3)cc2)o1 | inactive
62 | CCOC(=O)CSC1=NC(=O)/C(=C/c2ccc(OC)cc2)S1 | inconclusive: 14.6 µM [activator, partial curve]
63 | COc1ccc(OC)c(C(=O)N/N=C/c2ccccn2)c1 | inactive
64 | CC(C)Oc1cccc(C(=O)Nc2ccccc2N2CCOCC2)c1 | inactive
65 | COc1ccccc1C(=O)COC(=O)c1ccccc1O | inconclusive: 18.3 µM [activator, single point]
66 | COc1ccc(C(=O)N/N=C(/C)c2cccc(NC(=O)c3ccccc3F)c2)cc1 | inconclusive: 29.1 µM [activator, single point]
67 | CC(C)CNC(=S)N(CCCO)Cc1cc2cc3c(cc2[nH]c1=O)OCO3 | inconclusive: 20.6 µM [inhibitor, single point]
68 | CCOC(=O)C1CCN(c2nc(-c3ccc(C)cc3)nc3ccccc23)CC1 | inconclusive: 23.1 µM [inhibitor, partial curve]
69 | O=C1Nc2ccccc2N(O)N1c1cc(-c2cccc(Cl)c2)no1 | inactive
70 | CCN(CC)C(=S)Nc1ccc([N+](=O)[O-])cc1 | inactive
71 | COC(=O)Cn1c(C)nc([N+](=O)[O-])c1Br | inactive
72 | O=C(NCc1cccs1)c1cc(-c2ccncc2)nc2ccc(Br)cc12 | inconclusive: 32.6 µM [inhibitor, partial curve, poor fit]

Quoted from the listing:
For Potency, COc1ccc(CN(C)CC(=O)Nc2ccccc2-c2ccccc2)c(OC)c1 reads inconclusive: 29.1 µM [inhibitor, single point]
For Potency, O=C(Nc1nc2ccccc2n1CCOc1ccccc1)c1ccco1 reads inconclusive: 16.4 µM [inhibitor, partial curve, poor fit]
For Potency, CCOC(=O)c1cn2nc(SCc3ccccc3)nc2nc1C reads inconclusive: 8.2 µM [activator, partial curve]
For Potency, Cc1nnc(NC(=O)c2ccc(S(=O)(=O)N3CCCCCC3)cc2)o1 reads inactive
